Experimental findings from patent US20120095019A1 (priority 2010, published 2012) are described below.

Several values for one entry are separate records, joined by “and”; a condition that tells them apart may be missing. Identical values can stand only once.

A short description of the data set: Clinical trial in atrial fibrillation (SPAF) patients: betrixaban plasma concentrations with or without concomitant amiodarone.

In the case of `CCCCc1oc2ccccc2c1C(=O)c1cc(I)c(OCCN(CC)CC)c(I)c1` [amiodarone], the “Plasma Concentration of amiodarone” value is, setting by setting: (week 4, individual patient, betrixaban dose per day 80 mg) 542 ng/mL; (week 4, individual patients, betrixaban dose per day 40 mg) 891 ng/mL and 620 ng/mL and 691 ng/mL and 671 ng/mL; (week 4, individual patients, betrixaban dose per day 60 mg) 555 ng/mL and 1349 ng/mL and 968 ng/mL and 432 ng/mL and 607 ng/mL.
